{"source": "patent US12075697B2", "about": "“Inert solution-processable molecular chromophores for organic electronic devices” (The Regents of the University of California, priority 2012, dated 2024)", "assay": "Solar cell device ITO/PEDOT:PSS/DTS(FBTTh2)2:PC71BM/Ca/Al, current-voltage characteristics", "settings": "blend with PC71BM", "key": {"[1]": {"settings": "0.4% v/v diiodooctane (DIO), low temperature anneal (70° C.)"}}, "data": [{"compound": "CCCCCCc1ccc(-c2ccc(-c3cc(F)c(-c4cc5c(s4)-c4sc(-c6c(F)cc(-c7ccc(-c8ccc(CCCCCC)s8)s7)c7nsnc67)cc4[Si]5(CC(CC)CCCC)CC(CC)CCCC)c4nsnc34)s2)s1", "note": "(stereo not drawn) [p-DTS(FBTTh2)2, 7,7′-(4,4-bis(2-ethylhexyl)-4H-silolo[3,2-b:4,5-b′]dithiophene-2,6-diyl)bis(6-fluoro-4-(5′-hexyl-[2,2′-bithiophen]-5-yl)benzo[c][1,2,5]thiadiazole)]", "values": [{"measurement": "fill factor (FF)", "setting": "[1]", "value": 0.68}, {"measurement": "open circuit voltage (VOC)", "setting": "[1]", "value": 809, "unit": "mV"}, {"measurement": "power conversion efficiency (PCE)", "setting": "[1]", "value": 7.0, "unit": "%"}, {"measurement": "short circuit current (JSC)", "setting": "[1]", "value": 12.8, "unit": "mA cm^−2"}, {"measurement": "fill factor (FF)", "setting": "as cast", "value": 0.30}, {"measurement": "open circuit voltage (VOC)", "setting": "as cast", "value": 680, "unit": "mV"}, {"measurement": "power conversion efficiency (PCE)", "setting": "as cast", "value": 1.6, "unit": "%"}, {"measurement": "short circuit current (JSC)", "setting": "as cast", "value": 7.0, "unit": "mA cm^−2"}, {"measurement": "fill factor (FF)", "setting": "thermal annealing at 130° C.", "value": 0.62}, {"measurement": "open circuit voltage (VOC)", "setting": "thermal annealing at 130° C.", "value": 820, "unit": "mV"}, {"measurement": "power conversion efficiency (PCE)", "setting": "thermal annealing at 130° C.", "value": 5.6, "unit": "%"}, {"measurement": "short circuit current (JSC)", "setting": "thermal annealing at 130° C.", "value": 11.0, "unit": "mA cm^−2"}]}]}
